These are yes or no findings as the source states them, for the method shown. In cells and extracts the contact can be indirect. Some binding calls cover weakened binding; strength is not graded here.
molecular target: SARS-CoV-2 Open Reading Frame 8 (ORF8) protein, Strep II-tagged (SARS-CoV-2) (UniProt P0DTC8); assay: pull-down

Chains of the proteins cited; added tags and fusions are not shown. Lines headed by an entry give the natural chain unless they say otherwise; changes in a name come on top. Residues count along the entry.
UniProt P0DTC8, residues 16-121: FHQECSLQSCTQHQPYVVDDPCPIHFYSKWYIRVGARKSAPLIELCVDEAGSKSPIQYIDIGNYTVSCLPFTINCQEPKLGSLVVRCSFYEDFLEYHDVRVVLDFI
UniProt Q96P20: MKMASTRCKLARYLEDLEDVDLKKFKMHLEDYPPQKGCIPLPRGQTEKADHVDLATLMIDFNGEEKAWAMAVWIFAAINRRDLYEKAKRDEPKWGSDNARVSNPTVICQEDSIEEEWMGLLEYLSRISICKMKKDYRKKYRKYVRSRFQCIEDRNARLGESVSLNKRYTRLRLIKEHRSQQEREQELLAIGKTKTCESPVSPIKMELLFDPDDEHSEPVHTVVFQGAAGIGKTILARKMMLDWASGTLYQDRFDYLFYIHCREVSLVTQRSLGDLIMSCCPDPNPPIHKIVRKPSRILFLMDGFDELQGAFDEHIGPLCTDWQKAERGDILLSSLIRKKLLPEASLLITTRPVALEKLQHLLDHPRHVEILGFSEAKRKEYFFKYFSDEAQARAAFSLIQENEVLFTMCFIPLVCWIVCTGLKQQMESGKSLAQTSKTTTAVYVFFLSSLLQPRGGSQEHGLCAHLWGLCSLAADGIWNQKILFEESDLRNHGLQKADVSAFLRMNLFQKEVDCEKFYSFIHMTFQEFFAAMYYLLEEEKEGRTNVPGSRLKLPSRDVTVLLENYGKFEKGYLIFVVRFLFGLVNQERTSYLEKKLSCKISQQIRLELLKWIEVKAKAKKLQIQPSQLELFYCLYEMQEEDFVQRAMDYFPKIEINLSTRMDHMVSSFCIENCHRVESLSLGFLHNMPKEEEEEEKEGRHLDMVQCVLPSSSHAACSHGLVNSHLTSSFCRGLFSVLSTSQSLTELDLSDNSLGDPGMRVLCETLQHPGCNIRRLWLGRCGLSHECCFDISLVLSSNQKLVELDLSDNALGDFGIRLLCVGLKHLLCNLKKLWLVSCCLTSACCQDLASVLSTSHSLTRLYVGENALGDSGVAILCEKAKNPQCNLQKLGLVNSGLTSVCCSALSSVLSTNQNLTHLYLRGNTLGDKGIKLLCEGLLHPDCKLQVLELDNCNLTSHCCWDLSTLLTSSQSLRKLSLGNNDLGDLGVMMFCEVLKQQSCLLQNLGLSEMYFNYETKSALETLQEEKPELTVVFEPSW
UniProt O60603: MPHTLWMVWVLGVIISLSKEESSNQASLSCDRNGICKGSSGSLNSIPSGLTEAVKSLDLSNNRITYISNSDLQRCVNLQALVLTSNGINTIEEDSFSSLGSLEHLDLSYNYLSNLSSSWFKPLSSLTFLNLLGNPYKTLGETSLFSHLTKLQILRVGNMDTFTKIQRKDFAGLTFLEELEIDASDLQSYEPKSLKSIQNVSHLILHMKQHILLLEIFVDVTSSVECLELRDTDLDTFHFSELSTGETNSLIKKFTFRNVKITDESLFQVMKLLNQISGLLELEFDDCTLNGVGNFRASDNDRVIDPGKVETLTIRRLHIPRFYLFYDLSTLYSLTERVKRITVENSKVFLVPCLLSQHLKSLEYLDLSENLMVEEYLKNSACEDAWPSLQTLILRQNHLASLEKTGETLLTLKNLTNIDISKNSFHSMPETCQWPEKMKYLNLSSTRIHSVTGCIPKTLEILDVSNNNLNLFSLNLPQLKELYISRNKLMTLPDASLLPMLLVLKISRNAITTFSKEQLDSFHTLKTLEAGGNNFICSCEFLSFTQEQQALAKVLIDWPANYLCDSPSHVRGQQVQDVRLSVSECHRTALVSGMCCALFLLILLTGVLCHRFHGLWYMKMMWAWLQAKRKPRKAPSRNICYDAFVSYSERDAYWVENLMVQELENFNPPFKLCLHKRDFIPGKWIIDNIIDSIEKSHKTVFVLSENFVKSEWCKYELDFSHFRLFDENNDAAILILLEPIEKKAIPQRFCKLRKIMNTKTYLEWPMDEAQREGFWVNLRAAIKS
UniProt O00206, residues 24-839: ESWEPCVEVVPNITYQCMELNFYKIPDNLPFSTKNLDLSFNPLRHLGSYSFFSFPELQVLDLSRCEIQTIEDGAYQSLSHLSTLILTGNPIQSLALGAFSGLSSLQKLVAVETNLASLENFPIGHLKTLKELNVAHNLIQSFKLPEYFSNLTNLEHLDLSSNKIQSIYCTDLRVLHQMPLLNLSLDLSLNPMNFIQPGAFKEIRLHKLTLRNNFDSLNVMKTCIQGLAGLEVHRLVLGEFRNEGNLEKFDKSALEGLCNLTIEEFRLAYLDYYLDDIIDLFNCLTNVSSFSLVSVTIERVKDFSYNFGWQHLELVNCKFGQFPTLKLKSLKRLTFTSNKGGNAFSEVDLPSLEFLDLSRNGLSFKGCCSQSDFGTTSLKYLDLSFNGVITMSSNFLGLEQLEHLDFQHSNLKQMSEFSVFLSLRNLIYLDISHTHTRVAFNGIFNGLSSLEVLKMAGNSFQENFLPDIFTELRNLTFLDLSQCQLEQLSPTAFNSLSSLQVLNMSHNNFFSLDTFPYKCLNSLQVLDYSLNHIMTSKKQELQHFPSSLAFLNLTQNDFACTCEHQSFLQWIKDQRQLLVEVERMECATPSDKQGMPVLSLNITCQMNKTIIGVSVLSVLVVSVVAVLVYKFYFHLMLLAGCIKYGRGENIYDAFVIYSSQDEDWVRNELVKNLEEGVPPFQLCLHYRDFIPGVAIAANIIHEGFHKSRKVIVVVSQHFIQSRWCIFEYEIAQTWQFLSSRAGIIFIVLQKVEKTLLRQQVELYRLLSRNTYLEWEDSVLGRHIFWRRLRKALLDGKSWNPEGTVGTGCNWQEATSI

**Q.** Which binding does the source give for “Flag-N3-FL (full-length NLRP3) (from UniProt Q96P20 1-1036)” here?
**A.** The binding was “binds”.

**Q.** How did the binding turn out when “NOD-like receptor family pyrin domain-containing 3 (NLRP3), endogenous in primary human monocytes (from UniProt Q96P20 1-1036)” was run?
**A.** Its binding is “binds”.

**Q.** With “TLR2, endogenous in primary human monocytes (from UniProt O60603 21-784) (receptor)” as the substance, how does the binding read?
**A.** Its binding is “no binding”.

**Q.** With “TLR4, endogenous in primary human monocytes (from UniProt O00206 24-839) (receptor)” as the substance, how does the binding read?
**A.** The binding was “no binding”.

— article doi:10.1101/2021.12.02.470978
